## Library screen at single concentrations

The filed quantity is “Percent Effect” (%). How 0% and 100% were set is not recorded. Most values in the screen are low, and negative values occur. Compounds were drawn at random from those tested, without regard to their results.

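Whole-cell growth test on Mycobacterium tuberculosis, read after 4 days in a medium based on cholesterol and the lipid DPPC; the read-out is not stated. Concentration: 500 µM. The record gives no direction; compounds that gave an IC50 in retests scored well above the rest, so higher reads as more growth inhibition. Of about 18,000 compounds tested this way, about 900 (5%) reached 50% or more in at least one test.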

SMILES: O=C(NCc1ccc2c(c1)OCO2)Nc1nccs1
Percent Effect: 49.23%

SMILES: O=C(NCc1ccncc1)Nc1ccc2c(c1)OCO2
Percent Effect: 27.8%

SMILES: CCN(CC(=O)NC(C)C)Cc1nccn1CC
Percent Effect: 9.469%

SMILES: OCc1cc(F)cc(N2CCOCC2)c1
Percent Effect: -1.378%

SMILES: CNC(=O)CN1CCC(c2ccccc2)CC1
Percent Effect: 34%

SMILES: CCc1nc(COC)cc(=O)[nH]1
Percent Effect: -2.027%

SMILES: Nc1cccnc1NCc1cccnc1
Percent Effect: -85.51%

SMILES: CCCN1CCN(C(=O)CN(C)C)CC1
Percent Effect: -19.13%

SMILES: Cc1nc(CN2CCC[C@H]2C(=O)N2CCOCC2)cs1
Percent Effect: -14.69%

SMILES: Cc1cc(Br)ccc1C(=O)N1CCCNCC1
Percent Effect: 33.02%

SMILES: O=C(CCN1CCc2[nH]cnc2C1)NCc1cccs1
Percent Effect: -4.503%

SMILES: CCOC(C)(C)C(=O)NC(CC)Cn1ccnc1 (configuration not stated)
Percent Effect: -7.491%

SMILES: COc1cc(CCC(=O)Nc2nnc[nH]2)cc(OC)c1
Percent Effect: -12.69%

SMILES: CCC(C)(C)NC(=O)c1ccccc1S(=O)(=O)CC
Percent Effect: -1.5%

SMILES: CCC(CC)NC(=O)CN1CCCC(C)(CO)C1 (configuration not stated)
Percent Effect: 0.1117%

SMILES: Cc1cnc(CNC(=O)c2cn3ccsc3n2)cn1
Percent Effect: -0.6912%

SMILES: NCc1ccc(CN2CCOCC2)o1
Percent Effect: -15.22%

SMILES: O=C1CN(CC(=O)N2CCCCCCC2)CCN1
Percent Effect: 49.93%

SMILES: O=C(OCCC1CCCO1)c1ccncc1 (configuration not stated)
Percent Effect: -6.078%

SMILES: CN(C)C(=O)C1CCCN1C(=O)Cc1ccccc1 (configuration not stated)
Percent Effect: 13.84%

SMILES: CSCC(=O)Nc1ccc(N2CCN(C)CC2)cc1C
Percent Effect: 0.8571%

SMILES: c1ccc2oc(CN3CCNCC3)cc2c1
Percent Effect: 25.44%

SMILES: O=C(c1cccnc1)N1CCC(Nc2cccnc2)C1 (configuration not stated)
Percent Effect: -4.366%

SMILES: O=C(N[C@@H]1CCCNC1)c1nc2ccccn2c1F
Percent Effect: 14.04%

SMILES: CC1CCCCN1CC(N)=O (configuration not stated)
Percent Effect: -12.22%

SMILES: COC(=O)c1ccc(C(=O)N=c2sccn2C)cc1
Percent Effect: -7.947%

SMILES: CCC(C)(C)NC(=O)CN(C)Cc1nccn1C
Percent Effect: 17.52%

SMILES: O=C(NC1CC1)NC1CCNC1 (configuration not stated)
Percent Effect: 1.494%

SMILES: CC(C)N1CCC(C(=O)NCCc2cnccn2)CC1
Percent Effect: 4.706%

SMILES: COCC(=O)NC(C)Cc1ccco1 (configuration not stated)
Percent Effect: 21.7%

SMILES: CNC1CCCc2cccnc21 (configuration not stated)
Percent Effect: -5.236%

SMILES: CC(C)(C)NC(=O)C1CCCC1
Percent Effect: -0.5314%

SMILES: NC1(c2noc(C(F)(F)F)n2)CCCC1
Percent Effect: 29.27%

SMILES: CN1CCC(OCCCNC(=O)c2ccc[nH]2)CC1
Percent Effect: -4.259%

SMILES: COCC(C)(NCC(N)=O)c1ccccc1 (configuration not stated)
Percent Effect: -15.76%

SMILES: O=C(c1cnsn1)N1CCCSc2ccc(F)cc21
Percent Effect: -1.232%

SMILES: CN1CCC2(CC1)OCCN2C(=O)c1cccc(Cl)c1
Percent Effect: 2.971%

SMILES: O=C1NC(Cc2ccccc2)C(=O)Nc2ccccc21 (configuration not stated)
Percent Effect: -16.59%

SMILES: CN(C)C(=O)C(C)(N)C(F)(F)F (configuration not stated)
Percent Effect: -1.151%

SMILES: O=C(N[C@H]1CCCNC1)c1cccc(F)c1Cl
Percent Effect: 2.565%

SMILES: OCc1ccncc1NCC1CCOCC1
Percent Effect: 46.37%

SMILES: c1csc(N2CCC(NCCN3CCOCC3)CC2)n1
Percent Effect: -8.045%

SMILES: COCC(C)(C)NC(=O)Cc1cccc(O)c1
Percent Effect: 4.35%

SMILES: CN(C)c1ccc(NC(=O)NCC(F)(F)F)nc1
Percent Effect: -37.19%

SMILES: O=C1NCCCC1NC1CCSCC1 (configuration not stated)
Percent Effect: 1.979%

SMILES: NCCC1CN(C(=O)Cc2cccc(Cl)c2)CCO1 (configuration not stated)
Percent Effect: 18.84%

SMILES: CC(C)CNC(=O)N(C)Cc1cnn(C)c1
Percent Effect: 9.024%

SMILES: Cc1ccc(NC(=O)CCCc2nc(C)no2)nc1
Percent Effect: 9.936%

SMILES: COc1ccc(CN(C)C(=O)CCNC(C)=O)cc1F
Percent Effect: 16.16%

SMILES: CCn1nccc1CN1CCOCC2(CCOCC2)C1
Percent Effect: 36.83%

SMILES: CN(Cc1ccccc1)C(=O)NC1CCCCNC1=O (configuration not stated)
Percent Effect: 44.35%

The first 6 entries again:

SMILES	Percent Effect
O=C(NCc1ccc2c(c1)OCO2)Nc1nccs1	49.23%
O=C(NCc1ccncc1)Nc1ccc2c(c1)OCO2	27.8%
CCN(CC(=O)NC(C)C)Cc1nccn1CC	9.469%
OCc1cc(F)cc(N2CCOCC2)c1	-1.378%
CNC(=O)CN1CCC(c2ccccc2)CC1	34%
CCc1nc(COC)cc(=O)[nH]1	-2.027%

Data taken from ChEMBL document CHEMBL3988442, “University of Dundee, Small-Polar-MMV Screening Library” (2021).